Construct, isoform or probe ends are uncertain for at least one entry.
System: FGFR1b extracellular domain-Fc + FGF1
Assay: BLI
Settings: preformed FGF1:FGFR1b complex, 250 nM each; BLI (Octet K2, protein A sensor, FGFR-Fc 5 ug/mL), VZ23 31.25-500 nM in PBS (8.1 mM Na2HPO4, 1.5 mM NaH2PO4, 137 mM NaCl); recombinant protein; protein details: IgG1 Fc fusion; folded or branched DNA

“GGGATACAGGGCTTTGTCTATGGTGTGGATGGCGGATACC [VZ23]”: binds.

— publication PMC11700292, “Specific inhibition of fibroblast growth factor receptor 1 signaling by a DNA aptamer”
